PubChem BioAssay AID504784 – Drosophila RNAi Screening Center | 2011
The screen tested about 17,000 reagents; shown is a random part of those with a known target gene and a result. 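Each column is one replicate's B-score; the combined score over replicates was not deposited, so single values may mislead.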 The numbers tell different reagents against one gene apart. Names joined by + are all predicted targets of the reagent.

- Screen: 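Fly genes whose silencing alters how much lipid cells keep in droplets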 (primary screen)
- Cells: Drosophila Kc167 embryonic cells
- Knock-down reagent: long dsRNA against Drosophila genes, about 250 ng dsRNA per well
- Duration: 4 days
- Conditions: cells fed 400 µM oleic acid bound to BSA
- Measured: 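Cells imaged and segmented; ratio of lipid droplet area to nuclear area, log-transformed, then normalised as a B-score over the screen; higher means more stored lipid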
- Scale: droplet/nuclear area B-score: higher = more stored lipid (overstorage)

| predicted target | reagent | droplet/nuclear area B-score, replicate 1 | droplet/nuclear area B-score, replicate 2 | droplet/nuclear area B-score, replicate 3 |
| --- | --- | --- | --- | --- |
| CG10734 | 1 | 0.114 | -1.48 | – |
| Vhl | 1 | 2.61 | -0.294 | – |
| gek | 1 | 0.0206 | -0.248 | – |
| Send1 | 1 | 0.312 | -0.265 | – |
| CG42376 + cin | 1 | 0.214 | – | – |
| psh | 1 | 0.614 | -3.1 | – |
| Tango2 | 1 | -0.675 | -0.288 | 0.157 |
| Tango2 | 2 | -0.197 | -0.93 | – |
| Noc3 | 1 | -0.0189 | 0.302 | – |
| cutlet | 1 | 0.574 | -0.218 | 1.39 |
| Nplp3 | 1 | 0.151 | 0.112 | – |
| Act42A | 1 | -0.28 | -0.127 | – |
| CG14535 | 1 | -0.41 | -1.77 | – |
| CG1468 | 1 | -1.79 | 0.257 | -0.0401 |
| Gli | 1 | 0.1 | -0.376 | – |
| disco-r | 1 | -2.11 | 5.58 | – |
| disco-r | 2 | -0.259 | -0.287 | – |
| stj | 1 | -0.156 | 0.11 | – |
| CG13999 | 1 | -0.434 | 0.251 | – |
| Spt-I | 1 | -0.454 | 2.24 | – |
| CG15740 | 1 | 0.603 | 1.54 | 0.224 |
| CG15740 | 2 | 0.464 | -0.0136 | – |
| CG1622 | 1 | 1.36 | 0.384 | -0.824 |
| Gbs-70E | 1 | 1.05 | -1.45 | – |
| CG15765 | 1 | 0.53 | -0.59 | 0.935 |
| CG15765 | 2 | -0.889 | -0.027 | – |
| CG3687 | 1 | -1.11 | -1.55 | – |
| CG32591 | 1 | -0.635 | 0.0478 | – |
| CG32590 | 1 | -1.36 | 4.79 | – |
| CG42249 | 1 | -0.368 | -1.66 | -1.57 |
| CG42249 | 2 | 0.909 | 0.727 | -1.26 |
| CG14903 | 1 | -0.0637 | -3.48 | – |
| gzl | 1 | -1.17 | 7.38 | – |
| scaf | 1 | 0.00976 | -0.313 | – |
| Pfrx | 1 | 0.61 | -0.316 | – |
| Pfrx | 2 | -0.147 | -0.0492 | – |
| fzy | 1 | 2.08 | 1.26 | – |
| Fit1 | 1 | -0.192 | 2.04 | – |
| teq | 1 | -0.423 | 0.0741 | – |
| teq | 2 | 0.37 | -0.133 | – |
| teq | 3 | -0.954 | -0.711 | – |
| CG10324 | 1 | -1.32 | 1.51 | – |
| CG3225 | 1 | -1.18 | 0.00478 | – |
| Pex11ab | 1 | 2.96 | -1.21 | – |
| comm3 | 1 | -0.922 | 2.01 | – |
| comm3 | 2 | 0.414 | -0.18 | – |
| comm3 | 3 | 1.05 | 0.267 | – |
| CG3287 (retired record) | 1 | -0.0785 | 0.278 | – |
| Uros1 | 1 | 0.0488 | -1.47 | 0.44 |
| CG30075 | 1 | -0.464 | -0.691 | – |
| Oga | 1 | -0.207 | 2.3 | – |
| CG42537 | 1 | -1.85 | -1.68 | – |
| CG12116 | 1 | -0.154 | 0.117 | – |
| CG30340 | 1 | -1.12 | -0.752 | – |
| S-Lap1 | 1 | -0.0442 | 1.13 | – |
| Syx5 | 1 | -0.788 | 1.38 | – |
| DIP-epsilon | 1 | -0.198 | -0.578 | – |
| DIP-epsilon | 2 | -0.455 | -2.61 | – |
| Gabat | 1 | 0.0176 | -0.00375 | – |
| CG7565 | 1 | 1.13 | -0.377 | – |
| snky | 1 | -1.55 | 0.609 | – |
| 14-3-3zeta | 1 | -1.82 | -0.0183 | – |
| Rcd7 | 1 | -1.74 | -1.03 | – |
| CG2224 | 1 | 0.359 | 0.928 | – |
| CG4393 | 1 | 1.38 | 0.825 | – |
| CG15226 (retired record) | 1 | -0.0564 | -0.801 | – |
| CG15226 (retired record) | 2 | 0.603 | 0.808 | – |
| mld | 1 | -0.728 | -1.64 | – |
| mld | 2 | 0.0244 | -0.0974 | – |
| mld | 3 | 0.496 | 0.0252 | – |
| CG33093 | 1 | -0.371 | -0.441 | – |
| BomBc2 | 1 | -0.683 | -0.544 | – |
| Ndc80 | 1 | 2.33 | 1.07 | -0.473 |
| Ndc80 | 2 | 2.7 | 0.22 | – |
| CG11037 | 1 | 0.458 | 0.0543 | – |
| Lasp | 1 | 1.15 | 1.13 | – |
| chb | 1 | 1.24 | -1.4 | – |
| Gr57a | 1 | -0.236 | -1.83 | – |
| CG33003 | 1 | -0.499 | 0.919 | – |
| mib1 | 1 | -1.02 | -0.583 | – |
| mod(mdg4) + pre-mod(mdg4)-U | 1 | -0.918 | -0.0143 | – |
| Alg10 | 1 | 1.27 | -1.05 | – |
| Tmlh | 1 | 0.0663 | -0.00807 | – |

Ordered by “droplet/nuclear area B-score, replicate 2” (ascending): 7 of the entries above.
| predicted target | reagent | droplet/nuclear area B-score, replicate 1 | droplet/nuclear area B-score, replicate 2 | droplet/nuclear area B-score, replicate 3 |
| --- | --- | --- | --- | --- |
| Rcd7 | 1 | -1.74 | -1.03 | – |
| CG7565 | 1 | 1.13 | -0.377 | – |
| 14-3-3zeta | 1 | -1.82 | -0.0183 | – |
| Gabat | 1 | 0.0176 | -0.00375 | – |
| snky | 1 | -1.55 | 0.609 | – |
| CG4393 | 1 | 1.38 | 0.825 | – |
| CG2224 | 1 | 0.359 | 0.928 | – |
